# The list shows a part of the results. Repeats are few or missing, and single values can be far off.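 Cells were imaged in 1,536-well plates, and nuclei stained with an antibody against cleaved PARP were counted against all DNA-stained nuclei to give the apoptosis fraction. Screening doses were chosen to leave most cells alive, and resting and induced cleaved-PARP levels differ strongly between cell lines.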
# System: CBRC017 (line from a melanoma biopsy)
# Assay: cleaved PARP positive nuclei fraction relative to DMSO control; melanoma cells; higher = more apoptosis
# Conditions: library dose: low library concentration; 72 h
row,SMILES,cleaved PARP positive nuclei fraction [%]
1,"NCC(=O)Nc1ccc(-n2nc(C(F)(F)F)cc2-c2ccc3c(ccc4ccccc43)c2)cc1 + COc1cc2ncnc(Nc3ccc(Oc4ccccc4)cc3)c2cc1OC [SrcI1] (first compound 1 µM, partner dose 2 µM)",77.1
2,"NCC(=O)Nc1ccc(-n2nc(C(F)(F)F)cc2-c2ccc3c(ccc4ccccc43)c2)cc1 + O=C1NC(=O)/C(=C/c2ccc(-c3ccc(F)cc3O)o2)S1 [AS252424] (first compound 1 µM, partner dose 1 µM)",136
3,"COc1cc2ncnc(Nc3ccc(Oc4ccccc4)cc3)c2cc1OC + c1cc(-c2cnn3cc(-c4ccc(OCCN5CCCCC5)cc4)cnc23)ccn1 [Dorsomorphin] (first compound 2 µM, partner dose 0.4 µM)",98.2
4,"CCc1ccc(CCOc2ccc(CC3SC(=O)NC3=O)cc2)nc1 (stereo unspecified) [pioglitazone] + COC(=O)c1sccc1S(=O)(=O)Nc1ccc(Nc2ccccc2)cc1OC [GSK0660] (first compound 2 µM, partner dose 1 µM)",74.1
5,"O=C(Nc1ccccc1)c1cc([N+](=O)[O-])ccc1Cl + COc1ccc2c(c1)CCC1C2CCC2(C)C(NCCCCCCN3C(=O)C=CC3=O)CCC12 [U73122] (first compound 2 µM, partner dose 0.4 µM)",70.7
6,"COc1cc2c(Oc3ccc4[nH]c(C)cc4c3F)ncnc2cc1OCCCN1CCCC1 [cediranib] + O=C1NC(=O)/C(=C/c2ccc(-c3ccc(F)cc3O)o2)S1 [AS252424] (first compound 0.4 µM, partner dose 1 µM)",77.4
7,"O=C(O)c1ccc(-c2c[nH]c3ncc(-c4ccccc4)cc23)cc1C1CCCC1 + CCc1ccc(CCOc2ccc(CC3SC(=O)NC3=O)cc2)nc1 [pioglitazone] (first compound 0.16 µM, partner dose 2 µM)",93.8
8,"COc1cc2ncnc(Nc3ccc(Oc4ccccc4)cc3)c2cc1OC + Oc1cc(-c2nc(-c3ccccc3)[nH]c2-c2ccncc2)ccc1Cl [L779450] (first compound 2 µM, partner dose 0.2 µM)",63.2
9,"Oc1nc(-c2ccc(C(F)(F)F)cc2)nc2c1CSCC2 + O=c1cc(-c2cccc3c2Sc2ccccc2S3)oc(N2CCOCC2)c1 [KU55933] (first compound 2 µM, partner dose 1 µM)",102
10,"COc1ccc(-c2ccc3c(N4CCOCC4)nc(N4C[C@@H](C)O[C@@H](C)C4)nc3n2)cc1CO + O=S(=O)(c1ccccc1)N(CC(F)(F)F)c1ccc(C(O)(C(F)(F)F)C(F)(F)F)cc1 [T0901317] (first compound 0.02 µM, partner dose 1.4 µM)",48.5
11,"N#Cc1c(O)c2c(-c3ccc(-c4ccccc4O)cc3)csc2[nH]c1=O + Cn1cc(/C=C2\C(=O)Nc3cccnc32)c2ccccc21 [GW441756] (first compound 2 µM, partner dose 0.4 µM)",72.6
12,"NCC(=O)Nc1ccc(-n2nc(C(F)(F)F)cc2-c2ccc3c(ccc4ccccc43)c2)cc1 + O=C(O)C(=O)Nc1sc2c(c1C(=O)O)CCNC2 [TCS401] (first compound 1 µM, partner dose 1.66667 µM)",67.5
13,"NCC(=O)Nc1ccc(-n2nc(C(F)(F)F)cc2-c2ccc3c(ccc4ccccc43)c2)cc1 + CCc1ccc(CCOc2ccc(CC3SC(=O)NC3=O)cc2)nc1 [pioglitazone] (first compound 1 µM, partner dose 2 µM)",94.6
14,"O=C(Nc1ccccc1)c1cc([N+](=O)[O-])ccc1Cl + CC(C)CCN1c2nc(Nc3cc(F)c(O)c(F)c3)ncc2N(C)C(=O)C1C [BID1870] (first compound 2 µM, partner dose 0.2 µM)",249
15,"O=C(O)c1ccc(-c2c[nH]c3ncc(-c4ccccc4)cc23)cc1C1CCCC1 + Oc1cc(-c2nc(-c3ccccc3)[nH]c2-c2ccncc2)ccc1Cl [L779450] (first compound 0.16 µM, partner dose 0.2 µM)",95.8
16,"CN(C)S(=O)(=O)c1ccc2c(c1)/C(=C/c1cc3c([nH]1)CCCC3)C(=O)N2 + COc1ccc(COc2ccc(Cc3cnc(N)nc3N)cc2OC)cc1 [GW2580] (first compound 0.4 µM, partner dose 1 µM)",94.7
17,"COc1ccc(COc2ccc(Cc3cnc(N)nc3N)cc2OC)cc1 + c1cc(-c2cnn3cc(-c4ccc(OCCN5CCCCC5)cc4)cnc23)ccn1 [Dorsomorphin] (first compound 1 µM, partner dose 0.4 µM)",60.2
18,"COc1ccc(-c2ccc3c(N4CCOCC4)nc(N4C[C@@H](C)O[C@@H](C)C4)nc3n2)cc1CO + Oc1cc(-c2nc(-c3ccccc3)[nH]c2-c2ccncc2)ccc1Cl [L779450] (first compound 0.02 µM, partner dose 0.2 µM)",96.2
19,"CCN(CC)CCCCNc1ncc2cc(-c3cc(OC)cc(OC)c3)c(NC(=O)NC(C)(C)C)nc2n1 + Cc1cc([N+](=O)[O-])ccc1NS(=O)(=O)c1cc(Cl)ccc1Cl [FH535] (first compound 0.1 µM, partner dose 1 µM)",523
20,"O=S(=O)(c1ccccc1)N(CC(F)(F)F)c1ccc(C(O)(C(F)(F)F)C(F)(F)F)cc1 + Cc1cc([N+](=O)[O-])ccc1NS(=O)(=O)c1cc(Cl)ccc1Cl [FH535] (first compound 1.4 µM, partner dose 1 µM)",367
21,"COc1cc2ncnc(Nc3ccc(Oc4ccccc4)cc3)c2cc1OC + O=C(O)C(=O)Nc1sc2c(c1C(=O)O)CCNC2 [TCS401] (first compound 2 µM, partner dose 1.66667 µM)",59

# Quoted from above, entries 11 to 14
row,SMILES,cleaved PARP positive nuclei fraction [%]
11,"N#Cc1c(O)c2c(-c3ccc(-c4ccccc4O)cc3)csc2[nH]c1=O + Cn1cc(/C=C2\C(=O)Nc3cccnc32)c2ccccc21 [GW441756] (first compound 2 µM, partner dose 0.4 µM)",72.6
12,"NCC(=O)Nc1ccc(-n2nc(C(F)(F)F)cc2-c2ccc3c(ccc4ccccc43)c2)cc1 + O=C(O)C(=O)Nc1sc2c(c1C(=O)O)CCNC2 [TCS401] (first compound 1 µM, partner dose 1.66667 µM)",67.5
13,"NCC(=O)Nc1ccc(-n2nc(C(F)(F)F)cc2-c2ccc3c(ccc4ccccc43)c2)cc1 + CCc1ccc(CCOc2ccc(CC3SC(=O)NC3=O)cc2)nc1 [pioglitazone] (first compound 1 µM, partner dose 2 µM)",94.6
14,"O=C(Nc1ccccc1)c1cc([N+](=O)[O-])ccc1Cl + CC(C)CCN1c2nc(Nc3cc(F)c(O)c(F)c3)ncc2N(C)C(=O)C1C [BID1870] (first compound 2 µM, partner dose 0.2 µM)",249
